Laboratory results taken from patent US20140178935A1.
Changes are numbered by the printed parent chain. No constants are given. Whether binding was seen depends on the method and setting. Some binding calls cover weakened binding; strength is not graded here.

Protein sequences, listed by entry. Tags and fused reporters are not part of them. Lines headed by an entry give the natural chain unless they say otherwise; changes in a name come on top.
UniProt Q08048: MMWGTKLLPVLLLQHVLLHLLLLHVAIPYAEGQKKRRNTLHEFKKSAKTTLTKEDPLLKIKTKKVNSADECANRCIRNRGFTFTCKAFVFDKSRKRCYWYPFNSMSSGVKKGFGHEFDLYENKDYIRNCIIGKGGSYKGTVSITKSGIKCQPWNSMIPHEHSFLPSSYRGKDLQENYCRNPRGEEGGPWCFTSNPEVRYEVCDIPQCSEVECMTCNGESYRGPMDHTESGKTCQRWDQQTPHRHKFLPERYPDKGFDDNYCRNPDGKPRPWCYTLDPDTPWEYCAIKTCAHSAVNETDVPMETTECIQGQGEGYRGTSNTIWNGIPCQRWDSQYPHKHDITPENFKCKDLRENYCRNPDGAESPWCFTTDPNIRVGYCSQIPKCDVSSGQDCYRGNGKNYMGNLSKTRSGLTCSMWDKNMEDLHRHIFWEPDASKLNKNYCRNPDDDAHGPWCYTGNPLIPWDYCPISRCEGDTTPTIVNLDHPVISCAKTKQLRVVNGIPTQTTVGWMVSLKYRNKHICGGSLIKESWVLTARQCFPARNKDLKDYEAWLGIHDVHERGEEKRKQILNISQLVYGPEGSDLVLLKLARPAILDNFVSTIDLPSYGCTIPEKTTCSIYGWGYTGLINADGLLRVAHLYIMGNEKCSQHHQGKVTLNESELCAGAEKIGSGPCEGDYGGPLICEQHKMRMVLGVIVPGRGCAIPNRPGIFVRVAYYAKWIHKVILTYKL

B1: HE2B8-1 (LR2B8HC + IgG1 constant region G1m(3) allotype allele 1, plus LR2B8LC + Kappa constant region Km(3) allotype allele 1) (antibody, V domains shown)
VH: QVQLVQPGAEVVKPGTSVKLSCKASGYTFTTYWMHWVNQAPGQGLEWIGEINPTNGHTNYNEKFKGKATLTVDKSTSTAYMELSSLRSEDTAVYYCARNYVGSIFDYWGQGTLLTVSS
VL: DIVMTQSPDSMAMSVGERVTLNCKASENVVSYVSWYQQKPGQSPKLLIYGASNRNTGVPDRFSGSGSATDFTLTISSVQAEDVADYHCGQSYNYPYTFGQGTKLEIKR
B2: HE2B8-2 (LR2B8HC + IgG1 constant region G1m(3) allotype allele 1, plus LRMR2B8LC + Kappa constant region Km(3) allotype allele 1) (antibody, V domains shown)
VH: B1 VH
VL: B1 VL with M11L, V15L, N55E, T56S
B3: HE2B8-3 (LRMR2B8HC + IgG1 constant region G1m(3) allotype allele 1, plus LR2B8LC + Kappa constant region Km(3) allotype allele 1) (antibody, V domains shown)
VH: B1 VH with V12K, N38R, E62Q, K65Q, K67R
VL: B1 VL
B4: HE2B8-4 (LRMR2B8HC + IgG1 constant region G1m(3) allotype allele 1, plus LRMR2B8LC + Kappa constant region Km(3) allotype allele 1) (antibody, V domains shown)
VH: B1 VH with V12K, N38R, E62Q, K65Q, K67R
VL: B1 VL with M11L, V15L, N55E, T56S

Molecular target: recombinant mouse-human-mouse (mhm) chimeric HGF protein containing the human V495-L585 HGF sequence disposed within mouse HGF sequence (mouse-human-mouse chimera) (UniProt Q08048)
Assay: SPR, antibody immobilized, HGF protein injected, 25 C

binding, binds:
B1, B2, B3, B4
